Laboratory results published in PMC8483905.
No constants are given. Whether binding was seen depends on the method and setting. Binding seen in cells or lysates may run through a third protein. Some entries that bind do so weakly or less than the wild type.

The chains behind the UniProt entries cited, without tags or fusion partners.
UniProt O88643: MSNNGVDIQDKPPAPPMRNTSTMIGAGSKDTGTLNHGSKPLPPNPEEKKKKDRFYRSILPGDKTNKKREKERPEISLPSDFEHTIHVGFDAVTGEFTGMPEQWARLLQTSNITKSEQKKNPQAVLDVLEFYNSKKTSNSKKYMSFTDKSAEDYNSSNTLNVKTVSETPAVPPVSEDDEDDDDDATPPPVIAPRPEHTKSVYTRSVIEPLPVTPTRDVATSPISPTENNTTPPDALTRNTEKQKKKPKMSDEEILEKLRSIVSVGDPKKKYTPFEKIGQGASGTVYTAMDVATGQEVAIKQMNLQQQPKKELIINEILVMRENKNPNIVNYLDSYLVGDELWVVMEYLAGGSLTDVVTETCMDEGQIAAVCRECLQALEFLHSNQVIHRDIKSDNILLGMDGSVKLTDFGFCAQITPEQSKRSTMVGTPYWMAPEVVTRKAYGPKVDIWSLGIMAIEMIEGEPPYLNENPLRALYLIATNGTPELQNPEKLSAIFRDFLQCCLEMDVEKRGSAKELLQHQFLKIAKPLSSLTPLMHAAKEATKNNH
UniProt P37238: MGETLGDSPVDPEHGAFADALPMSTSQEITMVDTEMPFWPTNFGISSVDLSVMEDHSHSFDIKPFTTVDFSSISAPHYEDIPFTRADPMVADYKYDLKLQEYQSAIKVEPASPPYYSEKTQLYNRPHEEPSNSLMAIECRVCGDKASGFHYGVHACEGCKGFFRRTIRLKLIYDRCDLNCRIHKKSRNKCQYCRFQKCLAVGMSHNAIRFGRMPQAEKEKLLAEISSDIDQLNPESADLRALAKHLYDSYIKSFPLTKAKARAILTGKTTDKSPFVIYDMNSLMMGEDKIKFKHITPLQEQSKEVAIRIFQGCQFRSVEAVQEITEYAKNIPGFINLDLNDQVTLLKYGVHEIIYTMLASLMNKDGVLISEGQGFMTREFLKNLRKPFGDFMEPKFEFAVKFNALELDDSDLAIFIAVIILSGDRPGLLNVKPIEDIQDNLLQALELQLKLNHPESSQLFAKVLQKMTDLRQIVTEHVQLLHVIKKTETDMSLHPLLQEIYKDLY

Target: P21-activated kinases 1 (PAK1) (mouse (endogenous in BMDMs)) (UniProt O88643)
Assay: co-IP; endogenous proteins in BMDM lysate; precleared with immunoglobulin G and protein A beads; immunoprecipitation with PAK1 antibody and protein A-agarose at 4°C overnight, five washes with lysis buffer; immunoblot with PPARγ or PAK1 antibody

Substance: peroxisome proliferator-activated receptor γ (PPARγ) (from UniProt P37238 1-505)
- binding: binds
